Results taken from paper PMC11299231 (Steroids, 2024).

Key:
Experiment in all cases: Antiproliferative activity assay
Format in all cases: cell-based
MCF7 (ER + ) = settings: Homo sapiens, MCF7, 48 h, read-out: IC50 ± SEM, MCF7 (ER + )
MDA-MB-231 (ER-) = settings: Homo sapiens, MDA-MB-231, 48 h, read-out: IC50 ± SEM, MDA-MB-231 (ER−)
PC3 (AR-) = settings: Homo sapiens, 48 h, read-out: IC50 ± SEM, PC3 (AR−)
DU145 (AR-) = settings: Homo sapiens, DU-145, 48 h, read-out: IC50 ± SEM, DU145 (AR−)
T84 wt = settings: Homo sapiens, 48 h, read-out: IC50 ± SEM, T84 wt
HT-29 = settings: Homo sapiens, HT-29, 48 h, read-out: IC50 ± SEM, HT-29
HaCaT = settings: Homo sapiens, 48 h, read-out: IC50 ± SEM, HaCaT

IC50 (MCF7 (ER + )): 1.1 ± 0.4 µM
IC50 (MDA-MB-231 (ER-)): 4 ± 1 µM
IC50 (PC3 (AR-)): 14 ± 5 µM
IC50 (DU145 (AR-)): 13.2 ± 0.2 µM
IC50 (HT-29): 6.4 ± 0.1 µM
Compound: CC/C(=C(\c1ccccc1)c1ccc(OCCN(C)C)cc1)c1ccccc1 [Tamoxifen, tamoxifen]
IC50 (T84 wt): 12.4 ± 0.1 µM
IC50 (HaCaT): 13 ± 1 µM
